According to article doi:10.1101/2022.03.24.485634:

Biological target: mt-ELP3-Flag (ELP3/Kat9 203 spliced isoform, mitochondrial ELP3) (human)
Experiment: co-IP

B1: GTPBP3 (NM_001128855) Human Tagged ORF Clone, expressed from pCMV6 (protein, UniProt Q969Y2-3 21-471)
chain: TRRSSGAPAPGSGATIFALSSGQGRCGIAVIRTSGPASGHALRILTAPRDLPLARHASLRLLSDPRSGEPLDRALVLWFPGPQSFTGEDCVEFHVHGGPAVVSGVLQALGSVPGLRPAEAGEFTRRAFANGKLNLTEVEGLADLIHAETEAQRRQALRQLDGELGHLCRGWAETLTKALAHVEAYIDFGEDDNLEEGVLEQADIEVRALQVALGAHLRDARRGQRLRSGVHVVVTGPPNAGKSSLVNLLSRKPVSIVSPEPGTTRDVLETPVDLAGFPVLLSDTAGLREGVGPVEQEGVRRARESCNFLATVVASVGAQSPSDSSQRLLLVLNKSDLLSPEGPGPGPDLPPHLLLSCLTGEGLDGLLEALRKELAAVCGDPSTDPPLLTRARHQHHLQGCLDALGHYKQSKDLALAAEALRVARGHLTRLTGGGGTEEILDIIFQDFCVGK
- binding: binds

No constants are given. Whether binding was seen depends on the method and setting. Binding seen in cells or lysates may run through a third protein. Binding can be weak; no strength is given. Where a sequence is shown, tags or fusion partners need not be part of it.
